# Experimental data reported in the supplement of paper PMC8728848.
# The other results are listed elsewhere or left out.
# How the values were obtained:
# Test in all cases: glycan array binding signal (z-score within array); higher = stronger binding
# Details in all cases: glycan notation: IUPAC condensed, linker removed
# [1] = molecular target: Gal(b1-4)GlcNAc(b1-3)Gal(b1-4)GlcNAc(b1-2)[Gal(b1-4)GlcNAc(b1-3)Gal(b1-4)GlcNAc(b1-6)]Man(a1-6)[Gal(b1-4)GlcNAc(b1-3)Gal(b1-4)GlcNAc(b1-2)Man(a1-3)]Man(b1-4)GlcNAc(b1-4)GlcNAc
# Summary of the method: (§1)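 The binding signal is a Z-score computed within each array and averaged over linkers. Arrays of the same protein sequence at different concentrations or buffers were also averaged together. Data originate from 3228 arrays in the Consortium for Functional Glycomics database, kept only where the protein sequence was available.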
# [2] = molecular target: Gal(b1-4)GlcNAc(b1-3)Gal(b1-4)GlcNAc(b1-2)[Gal(b1-4)GlcNAc(b1-3)Gal(b1-4)GlcNAc(b1-6)]Man(a1-6)[Gal(b1-4)GlcNAc(b1-3)Gal(b1-4)GlcNAc(b1-2)Man(a1-3)]Man(b1-4)GlcNAc(b1-4)[Fuc(a1-6)]GlcNAc
# Summary of the method: as §1
# [3] = molecular target: Gal(b1-4)GlcNAc(b1-3)Gal(b1-4)GlcNAc(b1-3)Gal(b1-4)GlcNAc
# Summary of the method: as §1
# [4] = molecular target: Gal(b1-4)GlcNAc(b1-3)Gal(b1-4)GlcNAc(b1-3)Gal(b1-4)GlcNAc(b1-2)Man(a1-3)[Gal(b1-4)GlcNAc(b1-3)Gal(b1-4)GlcNAc(b1-3)Gal(b1-4)GlcNAc(b1-2)Man(a1-6)]Man(b1-4)GlcNAc(b1-4)GlcNAc
# Summary of the method: as §1
# [5] = molecular target: Gal(b1-4)GlcNAc(b1-3)Gal(b1-4)GlcNAc(b1-3)Gal(b1-4)GlcNAc(b1-2)Man(a1-3)[Gal(b1-4)GlcNAc(b1-3)Gal(b1-4)GlcNAc(b1-3)Gal(b1-4)GlcNAc(b1-2)Man(a1-6)]Man(b1-4)GlcNAc(b1-4)[Fuc(a1-6)]GlcNAc
# Summary of the method: as §1
# [6] = molecular target: Gal(b1-4)GlcNAc(b1-3)Gal(b1-4)GlcNAc(b1-3)Gal(b1-4)GlcNAc(b1-2)[Gal(b1-4)GlcNAc(b1-3)Gal(b1-4)GlcNAc(b1-3)Gal(b1-4)GlcNAc(b1-6)]Man(a1-6)[Gal(b1-4)GlcNAc(b1-3)Gal(b1-4)GlcNAc(b1-3)Gal(b1-4)GlcNAc(b1-2)Man(a1-3)]Man(b1-4)GlcNAc(b1-4)[Fuc(a1-6)]GlcNAc
# Summary of the method: as §1
# [7] = molecular target: Gal(b1-4)GlcNAc(b1-3)Gal(b1-4)GlcNAc(b1-3)Gal(b1-4)GlcNAc(b1-3)Gal(b1-4)GlcNAc(b1-2)Man(a1-3)[Gal(b1-4)GlcNAc(b1-3)Gal(b1-4)GlcNAc(b1-3)Gal(b1-4)GlcNAc(b1-3)Gal(b1-4)GlcNAc(b1-2)Man(a1-6)]Man(b1-4)GlcNAc(b1-4)GlcNAc
# Summary of the method: as §1
# [8] = molecular target: Gal(b1-4)GlcNAc(b1-3)Gal(b1-4)GlcNAc(b1-3)Gal(b1-4)GlcNAc(b1-3)Gal(b1-4)GlcNAc(b1-2)Man(a1-3)[Gal(b1-4)GlcNAc(b1-3)Gal(b1-4)GlcNAc(b1-3)Gal(b1-4)GlcNAc(b1-3)Gal(b1-4)GlcNAc(b1-2)Man(a1-6)]Man(b1-4)GlcNAc(b1-4)[Fuc(a1-6)]GlcNAc
# Summary of the method: as §1
# [9] = molecular target: Gal(b1-4)GlcNAc(b1-3)Gal(b1-4)GlcNAc(b1-3)Gal(b1-4)GlcNAc(b1-3)Gal(b1-4)GlcNAc(b1-2)[Gal(b1-4)GlcNAc(b1-3)Gal(b1-4)GlcNAc(b1-3)Gal(b1-4)GlcNAc(b1-3)Gal(b1-4)GlcNAc(b1-6)]Man(a1-6)[Gal(b1-4)GlcNAc(b1-3)Gal(b1-4)GlcNAc(b1-3)Gal(b1-4)GlcNAc(b1-3)Gal(b1-4)GlcNAc(b1-2)Man(a1-3)]Man(b1-4)GlcNAc(b1-4)[Fuc(a1-6)]GlcNAc
# Summary of the method: as §1
# [10] = molecular target: Gal(b1-4)GlcNAc(b1-3)Gal(b1-4)GlcNAc(b1-3)Gal(b1-4)GlcNAc(b1-3)Gal(b1-4)GlcNAc(b1-3)Gal(b1-4)GlcNAc(b1-2)Man(a1-3)[Gal(b1-4)GlcNAc(b1-3)Gal(b1-4)GlcNAc(b1-3)Gal(b1-4)GlcNAc(b1-3)Gal(b1-4)GlcNAc(b1-3)Gal(b1-4)GlcNAc(b1-2)Man(a1-6)]Man(b1-4)GlcNAc(b1-4)GlcNAc
# Summary of the method: as §1
# [11] = molecular target: Gal(b1-4)GlcNAc(b1-3)Gal(b1-4)GlcNAc(b1-3)Gal(b1-4)GlcNAc(b1-3)Gal(b1-4)GlcNAc(b1-3)Gal(b1-4)GlcNAc(b1-2)Man(a1-3)[Gal(b1-4)GlcNAc(b1-3)Gal(b1-4)GlcNAc(b1-3)Gal(b1-4)GlcNAc(b1-3)Gal(b1-4)GlcNAc(b1-3)Gal(b1-4)GlcNAc(b1-2)Man(a1-6)]Man(b1-4)GlcNAc(b1-4)[Fuc(a1-6)]GlcNAc
# Summary of the method: as §1
# [12] = molecular target: Gal(b1-4)GlcNAc(b1-3)Gal(b1-4)GlcNAc(b1-3)Gal(b1-4)GlcNAc(b1-3)Gal(b1-4)GlcNAc(b1-3)Gal(b1-4)GlcNAc(b1-2)[Gal(b1-4)GlcNAc(b1-3)Gal(b1-4)GlcNAc(b1-3)Gal(b1-4)GlcNAc(b1-3)Gal(b1-4)GlcNAc(b1-3)Gal(b1-4)GlcNAc(b1-6)]Man(a1-6)[Gal(b1-4)GlcNAc(b1-3)Gal(b1-4)GlcNAc(b1-3)Gal(b1-4)GlcNAc(b1-3)Gal(b1-4)GlcNAc(b1-3)Gal(b1-4)GlcNAc(b1-2)Man(a1-3)]Man(b1-4)GlcNAc(b1-4)[Fuc(a1-6)]GlcNAc
# Summary of the method: as §1
# [13] = molecular target: Gal(b1-4)GlcNAc(b1-3)Gal(b1-4)GlcNAc(b1-3)Gal(b1-4)GlcNAc(b1-3)Gal(b1-4)GlcNAc(b1-3)Gal(b1-4)GlcNAc(b1-3)Gal(b1-4)GlcNAc(b1-2)Man(a1-3)[Gal(b1-4)GlcNAc(b1-3)Gal(b1-4)GlcNAc(b1-3)Gal(b1-4)GlcNAc(b1-3)Gal(b1-4)GlcNAc(b1-3)Gal(b1-4)GlcNAc(b1-3)Gal(b1-4)GlcNAc(b1-2)Man(a1-6)]Man(b1-4)GlcNAc(b1-4)GlcNAc
# Summary of the method: as §1
# [14] = molecular target: Gal(b1-4)GlcNAc(b1-3)Gal(b1-4)GlcNAc(b1-3)GalNAc
# Summary of the method: as §1
# [15] = molecular target: Gal(b1-4)GlcNAc(b1-3)Gal(b1-4)GlcNAc(b1-3)[Gal(b1-4)GlcNAc(b1-3)Gal(b1-4)GlcNAc(b1-6)]GalNAc
# Summary of the method: as §1
# [16] = molecular target: Gal(b1-4)GlcNAc(b1-3)Gal(b1-4)GlcNAc(b1-6)[Gal(b1-3)]GalNAc
# Summary of the method: as §1
# [17] = molecular target: Gal(b1-4)GlcNAc(b1-3)Gal(b1-4)[Fuc(a1-3)]GlcNAc(b1-3)Gal(b1-4)[Fuc(a1-3)]GlcNAc
# Summary of the method: as §1
# [18] = molecular target: Gal(b1-4)GlcNAc(b1-3)GalNAc
# Summary of the method: as §1
# [19] = molecular target: Gal(b1-4)GlcNAc(b1-3)[Fuc(a1-3)GlcNAc(b1-6)]Gal(b1-4)Glc
# Summary of the method: as §1
# [20] = molecular target: Gal(b1-4)GlcNAc(b1-3)[Gal(b1-4)GlcNAc(b1-6)]Gal(b1-4)GlcNAc
# Summary of the method: as §1
# [21] = molecular target: Gal(b1-4)GlcNAc(b1-3)[GlcNAc(b1-6)]Gal(b1-4)GlcNAc
# Summary of the method: as §1
# [22] = molecular target: Gal(b1-4)GlcNAc(b1-6)Gal(b1-4)GlcNAc
# Summary of the method: as §1
# [23] = molecular target: Gal(b1-4)GlcNAc(b1-6)GalNAc
# Summary of the method: as §1
# [24] = molecular target: Gal(b1-4)GlcNAc(b1-6)[Gal(b1-3)]GalNAc
# Summary of the method: as §1
# [25] = molecular target: Gal(b1-4)GlcNAc(b1-6)[Gal(b1-4)GlcNAc(b1-3)]GalNAc
# Summary of the method: as §1
# [26] = molecular target: Gal(b1-4)GlcNAc6P
# Summary of the method: as §1
# [27] = molecular target: Gal(b1-6)Gal
# Summary of the method: as §1
# [28] = molecular target: Gal3S(b1-3)GalNAc
# Summary of the method: as §1
# [29] = molecular target: Gal3S(b1-3)GlcNAc
# Summary of the method: as §1
# [30] = molecular target: Gal3S(b1-3)[Fuc(a1-4)]GlcNAc
# Summary of the method: as §1
# [31] = molecular target: Gal3S(b1-4)Glc
# Summary of the method: as §1
# [32] = molecular target: Gal3S(b1-4)Glc6S
# Summary of the method: as §1
# [33] = molecular target: Gal3S(b1-4)GlcNAc
# Summary of the method: as §1
# [34] = molecular target: Gal3S(b1-4)[Fuc(a1-3)]Glc6S
# Summary of the method: as §1
# [35] = molecular target: Gal3S(b1-4)[Fuc(a1-3)]GlcNAc
# Summary of the method: as §1
# [36] = molecular target: Gal3S(b1-4)[Fuc(a1-3)]GlcNAc6S
# Summary of the method: as §1
# [37] = molecular target: Gal3S4S(b1-4)GlcNAc
# Summary of the method: as §1
binder,measurement,setting,value
PX14343C-bfa-541-26-541 (Bacteroides fragilis) (protein) KAPLDEIADDSFWSDETLVKYYVNDLYSEISVDGLQLQENRSDNSVSAQRDKYRASWFKFNYDMVSASDPQDDDVWEDYYVKVRKCNRFFERIGTSTIEESEKSRLTGEVHFLRAMFYFEMVKRYGGVILLDKVLTMEDNWEIPRSSEKECYDFILEDLKKATEMLPASYGSREKGRATKGAAYALKSRVELYDKRYEDVIKSCAEVYKLGYELVDGTTPEKYRSIWWTTNKDNKEIIFDVQYKSPDVYNNMMVCNMVTYINDKYGDRGWGGLGPTQELIDAFEMADGTPATQYSQAPADQVFDINTCGIYEGREPRFYANIVFHGSQIFFNADKGAVTVDRYLMDTPDKGDGSLTGYNVWKWIDYDNYNYPYAGAGSPDFSTNWIILRYAEIYLNDAEARLETGDVEGARKAVNMIRQRVGLPDLTESDPEKLRELIRKERRIEFAFEEQRFYDVRRWKIGPETQTTLHGVRFVSPTEFKVTKTDIRTWNDRLYLTPVPHDEIVRSSVLKQNLGY,glycan array binding signal (z-score),[1],0.419
same,glycan array binding signal (z-score),[2],-0.151
same,glycan array binding signal (z-score),[3],-1.14
same,glycan array binding signal (z-score),[4],1.23
same,glycan array binding signal (z-score),[5],-0.231
same,glycan array binding signal (z-score),[6],2.43
same,glycan array binding signal (z-score),[7],0.477
same,glycan array binding signal (z-score),[8],1.39
same,glycan array binding signal (z-score),[9],0.076
same,glycan array binding signal (z-score),[10],0.519
same,glycan array binding signal (z-score),[11],1.37
same,glycan array binding signal (z-score),[12],0.758
same,glycan array binding signal (z-score),[13],0.381
same,glycan array binding signal (z-score),[14],0.28
same,glycan array binding signal (z-score),[15],-0.217
same,glycan array binding signal (z-score),[16],-0.448
same,glycan array binding signal (z-score),[17],0.836
same,glycan array binding signal (z-score),[18],-0.581
same,glycan array binding signal (z-score),[19],-0.807
same,glycan array binding signal (z-score),[20],-0.227
same,glycan array binding signal (z-score),[21],-0.998
same,glycan array binding signal (z-score),[22],-0.286
same,glycan array binding signal (z-score),[23],0.165
same,glycan array binding signal (z-score),[24],-0.135
same,glycan array binding signal (z-score),[25],0.249
same,glycan array binding signal (z-score),[26],-0.341
same,glycan array binding signal (z-score),[27],-0.47
same,glycan array binding signal (z-score),[28],-0.409
same,glycan array binding signal (z-score),[29],-0.147
same,glycan array binding signal (z-score),[30],0.181
same,glycan array binding signal (z-score),[31],-0.539
same,glycan array binding signal (z-score),[32],0.2
same,glycan array binding signal (z-score),[33],-0.427
same,glycan array binding signal (z-score),[34],2.16
same,glycan array binding signal (z-score),[35],-0.026
same,glycan array binding signal (z-score),[36],-0.296
same,glycan array binding signal (z-score),[37],0.497

# Part of the list above, reformatted.
binder | measurement | setting | value
PX14343C-bfa-541-26-541 (Bacteroides fragilis) (protein) KAPLDEIADDSFWSDETLVKYYVNDLYSEISVDGLQLQENRSDNSVSAQRDKYRASWFKFNYDMVSASDPQDDDVWEDYYVKVRKCNRFFERIGTSTIEESEKSRLTGEVHFLRAMFYFEMVKRYGGVILLDKVLTMEDNWEIPRSSEKECYDFILEDLKKATEMLPASYGSREKGRATKGAAYALKSRVELYDKRYEDVIKSCAEVYKLGYELVDGTTPEKYRSIWWTTNKDNKEIIFDVQYKSPDVYNNMMVCNMVTYINDKYGDRGWGGLGPTQELIDAFEMADGTPATQYSQAPADQVFDINTCGIYEGREPRFYANIVFHGSQIFFNADKGAVTVDRYLMDTPDKGDGSLTGYNVWKWIDYDNYNYPYAGAGSPDFSTNWIILRYAEIYLNDAEARLETGDVEGARKAVNMIRQRVGLPDLTESDPEKLRELIRKERRIEFAFEEQRFYDVRRWKIGPETQTTLHGVRFVSPTEFKVTKTDIRTWNDRLYLTPVPHDEIVRSSVLKQNLGY | glycan array binding signal (z-score) | [6] | 2.43
same | glycan array binding signal (z-score) | [13] | 0.381
same | glycan array binding signal (z-score) | [33] | -0.427
